Reference: publication PMC7819943, “Rice protein-binding microarrays: a tool to detect cis-acting elements near promoter regions in rice”
Some of the results follow.

By UniProt entry, the sequences of proteins in these tests, tags left out.
UniProt Q0JBA9, entry or part of it: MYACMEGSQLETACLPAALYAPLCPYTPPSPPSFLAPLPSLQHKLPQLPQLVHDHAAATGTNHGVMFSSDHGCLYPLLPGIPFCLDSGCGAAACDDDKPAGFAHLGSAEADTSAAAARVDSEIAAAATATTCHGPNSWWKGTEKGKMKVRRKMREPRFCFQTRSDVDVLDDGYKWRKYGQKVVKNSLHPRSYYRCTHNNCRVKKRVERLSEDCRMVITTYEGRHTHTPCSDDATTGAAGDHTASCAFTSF

target: OsWRKY34 (Oryza sativa, UniProt Q0JBA9 1-250); experiment: protein-binding microarray (RPBM); PBS, 2% BSA, 51.3 ng/ul salmon testes DNA, 50 uM zinc acetate, 200 nM TF, 25 C, 1 h; high values mean tight binding; conditions: protein: recombinant; tags: N-terminal polyhistidine and DsRed monomer fusion (pET32a); label: CyDye5-dUTP incorporated in the synthesized complementary strand; 3' TTTTT single-stranded linker to array surface; dsDNA, one strand shown
Summary of the method: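 Binding signal is reported as fluorescence intensity per feature (arbitrary units) from an Axon 4000B scanner. Incubation used 200 nM of each Ni–NTA-purified, N-terminally polyhistidine- and DsRed-fused transcription factor from E. coli BL21-CodonPlus on a double-stranded custom Agilent array for 1 h at 25 °C, with 50 µM zinc acetate in the buffer, followed by washing.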

Row | Sequence | binding signal
1 | CCATCACGCAGCCGCTCCGGTTGCGTCTTTGTCGGCCACTCGGAGTCACCTAGTGCAG | 8330 fluorescence intensity (a.u.)
2 | ATCCCACCCTACACTTTCCATTATCCAAACGCACTCTTACCGGAGTCACCTAGTGCAG | 8310 fluorescence intensity (a.u.)
3 | ACATCCTTTGCATCATCTGGGCTGTTAGCAGTTCACGTTTCGGAGTCACCTAGTGCAG | 9680 fluorescence intensity (a.u.)
4 | TATATAAGCGCATTTGCCATGACACTATCGTTCATCACCACGGAGTCACCTAGTGCAG | 9700 fluorescence intensity (a.u.)
5 | CGAGTGTGAGTGGCGGTGGTTTTGGGGTGAAAGTGCATGTCGGAGTCACCTAGTGCAG | 8390 fluorescence intensity (a.u.)
6 | GATCTCACACTGACTACGGGCCCCACCTGTCACACACACTCGGAGTCACCTAGTGCAG | 8530 fluorescence intensity (a.u.)
7 | CGTCTATCTAAAATGTTTCCGTACCATTAAGAGCTCCTTTCGGAGTCACCTAGTGCAG | 9300 fluorescence intensity (a.u.)
8 | CATTTTGTCACGGCTTTATAAATTACTTCAGTTCTTGTGACGGAGTCACCTAGTGCAG | 9940 fluorescence intensity (a.u.)
9 | AGCTACCACACCTTGGCCTAACTTAACGGAGATACTTTTTCGGAGTCACCTAGTGCAG | 9420 fluorescence intensity (a.u.)
10 | TAGATATCTTGTAGCAAATTTTGTTCAGTACCGTATTTTTCGGAGTCACCTAGTGCAG | 9730 fluorescence intensity (a.u.)
11 | TCCTTTCTTCCGGTTCTCCTATCCCCTGTTGCTCTTTGTTCGGAGTCACCTAGTGCAG | 8260 fluorescence intensity (a.u.)
12 | ACGGGCACTCGCTTCTCCACTAGGGTTTCTCGCCGCCGCCCGGAGTCACCTAGTGCAG | 9300 fluorescence intensity (a.u.)
13 | TTAGATGTCACATCGGATGTTTGACCAGATGTCGGAAGGGCGGAGTCACCTAGTGCAG | 8260 fluorescence intensity (a.u.)
14 | GTCCCGTGCCGCCGCCGCCTTCGCTCCTCCCCGCCGTACTCGGAGTCACCTAGTGCAG | 8070 fluorescence intensity (a.u.)
15 | TACTGTACTTCCTTTCACTACACCATGACACTAGATTACCCGGAGTCACCTAGTGCAG | 10200 fluorescence intensity (a.u.)
16 | TATGATGGTTGGGGCTGTCACAGCTGCGCTTGGTGCTTCTCGGAGTCACCTAGTGCAG | 8260 fluorescence intensity (a.u.)
17 | CCGCACCGCCGGATGCCGCCGCCGCTCGCTCTCGCTGTCCCGGAGTCACCTAGTGCAG | 8430 fluorescence intensity (a.u.)
18 | AGAAATAGGGTTATGAAATTCAGCAACATATGTGATTTGACGGAGTCACCTAGTGCAG | 8240 fluorescence intensity (a.u.)
19 | GTTAATCGGCCACTCTGTTTTTTTGGTTACACCCACTACCCGGAGTCACCTAGTGCAG | 9900 fluorescence intensity (a.u.)
20 | CCAGGTCTGTTTTACCGGGTCTCGAAGTTTCCTTGCTTGGCGGAGTCACCTAGTGCAG | 8350 fluorescence intensity (a.u.)
21 | CGTCCGATCGGGCTCGCGCGTTGACTATAACCGGTCCACGCGGAGTCACCTAGTGCAG | 13100 fluorescence intensity (a.u.)
22 | GCCACAGAGATGATGGTTTGTATTGATCATACTAGTTACTCGGAGTCACCTAGTGCAG | 8860 fluorescence intensity (a.u.)
23 | TGATTAATCCATCTATCGCGTTGAGCTATACTCGTCTTCACGGAGTCACCTAGTGCAG | 9270 fluorescence intensity (a.u.)
24 | TAGGATACTGACTCATGTTGCTGCTGCTCTTTTCGTCTATCGGAGTCACCTAGTGCAG | 11700 fluorescence intensity (a.u.)
25 | AAACGAATAGTCAAACGTTGATCGAAAAGTCAACGGCGTCCGGAGTCACCTAGTGCAG | 19300 fluorescence intensity (a.u.)
26 | ACCACGGCAAGCCCCTCGCCGAGTCTCTCATCATCGTCGACGGAGTCACCTAGTGCAG | 8830 fluorescence intensity (a.u.)
27 | ACCAAAAAGATGCCATGTTTTTTCAGCCCAAACTACAATGCGGAGTCACCTAGTGCAG | 8070 fluorescence intensity (a.u.)

Reprinted at random: 2 entries already listed, in no set order.
Row | Sequence | binding signal
19 | GTTAATCGGCCACTCTGTTTTTTTGGTTACACCCACTACCCGGAGTCACCTAGTGCAG | 9900 fluorescence intensity (a.u.)
9 | AGCTACCACACCTTGGCCTAACTTAACGGAGATACTTTTTCGGAGTCACCTAGTGCAG | 9420 fluorescence intensity (a.u.)

(further entries)

Row | Sequence | binding signal
28 | GACCAGCCTCTATATTTCCATTCTCATGATCCATGGGCAACGGAGTCACCTAGTGCAG | 9210 fluorescence intensity (a.u.)
29 | AAATATCACCAGCTACCTGATTCATTATTCATCCATCACTCGGAGTCACCTAGTGCAG | 10900 fluorescence intensity (a.u.)
30 | TGGTGGTGGTGGTGGTAGGGTTAGGGGTAGGAGGGGTCTCCGGAGTCACCTAGTGCAG | 12900 fluorescence intensity (a.u.)
31 | GGATAGAGTGGTGCTTTGGTGTGCTTTTGTTTTAATTGTTCGGAGTCACCTAGTGCAG | 11700 fluorescence intensity (a.u.)
32 | AACACACGCCACACTCCTCTCGCCCGCATCGCACTCGCACCGGAGTCACCTAGTGCAG | 10700 fluorescence intensity (a.u.)
33 | TCCCCGTCACGCGGTCAACCCGCCCATGCATTCGCGCGCCCGGAGTCACCTAGTGCAG | 9200 fluorescence intensity (a.u.)
34 | ATCCAACCGACGCGAAACCGACGCGTTGCTTCCCTGCTAACGGAGTCACCTAGTGCAG | 8320 fluorescence intensity (a.u.)
35 | CCTCCGCCACCTTTGCATTCACCATCCTTCCAGTCAAATCCGGAGTCACCTAGTGCAG | 11500 fluorescence intensity (a.u.)
36 | CTCCTCACACATTCCCACGCACACATTTCCCCATGCACATCGGAGTCACCTAGTGCAG | 9490 fluorescence intensity (a.u.)
37 | TCGTCATATTTACTTTCGTCATATTTAATCTCTATTTAACCGGAGTCACCTAGTGCAG | 8390 fluorescence intensity (a.u.)
38 | AGGTGTGAGAGATAAAAAGGTAATAGTTGGTCACGTCATACGGAGTCACCTAGTGCAG | 9080 fluorescence intensity (a.u.)
39 | GACGCCGTTAACTTTTTCTCACATGTTTAACCATTCGTCTCGGAGTCACCTAGTGCAG | 12700 fluorescence intensity (a.u.)
40 | ATAACTTTTATTTTGGTCATTTATTCATCCGACAAAATAGCGGAGTCACCTAGTGCAG | 9220 fluorescence intensity (a.u.)
41 | ACCCACCAAACACATCCACGTCCCTTCACCGTTGGCCTTCCGGAGTCACCTAGTGCAG | 14100 fluorescence intensity (a.u.)
42 | ACCGCCATAGACTACCCAAGCCACTCAAATAGTACGATTTCGGAGTCACCTAGTGCAG | 8170 fluorescence intensity (a.u.)
43 | CCACGCCAACACCATCTCTCTTTCCTCTATTCTCTCCCTTCGGAGTCACCTAGTGCAG | 9120 fluorescence intensity (a.u.)
44 | CCGTCTACCATCTAGATGTCGACAAAACCATGTGCTCCTCCGGAGTCACCTAGTGCAG | 8150 fluorescence intensity (a.u.)
45 | GTGTAGTAGTGTAGTAGGATCGCATCTAACCGTTGATTTTCGGAGTCACCTAGTGCAG | 8580 fluorescence intensity (a.u.)
46 | TCTCTCTCTCTCTCTCTTCTCTTCTCTTTGTTTTCTTGTTCGGAGTCACCTAGTGCAG | 9940 fluorescence intensity (a.u.)
47 | ACCCGCTTGCTAGTTTATTTTTACATGGTAATACAAAATTCGGAGTCACCTAGTGCAG | 9030 fluorescence intensity (a.u.)
48 | ACCGCCGCGGCGGCTTCGCTTCGCTTCCCAATCCTTCACACGGAGTCACCTAGTGCAG | 9120 fluorescence intensity (a.u.)
49 | CAAGCCGGGTGGGAAGGGGCGGGACTCCATACTGCTGCCGCGGAGTCACCTAGTGCAG | 13000 fluorescence intensity (a.u.)
50 | CCCAGATTCGCCCCGCACCGCACCGCCCTTGGCTCGCCCCCGGAGTCACCTAGTGCAG | 8340 fluorescence intensity (a.u.)
51 | GATCAACCACTCTGCCACTAGACTCCATTTGCACTTCACTCGGAGTCACCTAGTGCAG | 8940 fluorescence intensity (a.u.)
52 | GCGCCAACTCACCACCACATGCATATACACACGAGAAATCCGGAGTCACCTAGTGCAG | 11400 fluorescence intensity (a.u.)
53 | GCCCATAACCATCGTCGATCTCGTCCGCACATCTGCGGCCCGGAGTCACCTAGTGCAG | 13300 fluorescence intensity (a.u.)
54 | TTTTGGTTGGACTTTCCACCCTACTACTATCTCATTATGCCGGAGTCACCTAGTGCAG | 9120 fluorescence intensity (a.u.)
